# Assay results as given in the supplement of paper PMC11438910.
# Some of the results follow. Most of these values are background signal.
# B1: 4-99.1 (protein)
# chain 1: QVQLQESGPGLVKPSETLSLTCAVSGDSISSGYFWGWIRQPPGKGLEYIGYISGESGNTYDNPSLKSRVTISKDTSKNQFSLNLRSVTAADTAVYYCARRTVYIGFDYWGQGVLVTVSS
# chain 2: QAAPTQPPSVSGSPGQSVTISCTGTSSDIGYYNAVSWYQQHPGKAPKLMIYEVSKRPSGVSDRFSGSKSGTTASLTISGLQAEDEADYYCSSYAGTNTYIFGAGTRLTVL
# Experiments:
# Assay in all cases: fluorescence intensity of antibody binding to polysaccharide-coupled beads; higher = stronger binding
# [1] = molecular target: pneumococcal polysaccharide Pn19B
# [2] = molecular target: pneumococcal polysaccharide Pn19C
# [3] = molecular target: pneumococcal polysaccharide Pn19F
# [4] = molecular target: pneumococcal polysaccharide Pn2
# [5] = molecular target: pneumococcal polysaccharide Pn20A
# [6] = molecular target: pneumococcal polysaccharide Pn20B
# [7] = molecular target: pneumococcal polysaccharide Pn21
# [8] = molecular target: pneumococcal polysaccharide Pn22A
# [9] = molecular target: pneumococcal polysaccharide Pn22F
# [10] = molecular target: pneumococcal polysaccharide Pn23A
# [11] = molecular target: pneumococcal polysaccharide Pn23B
# [12] = molecular target: pneumococcal polysaccharide Pn23F
# [13] = antibody concentration 0.1 ng/mL
# [14] = antibody concentration 0.534724 ng/mL
# [15] = antibody concentration 2.8593 ng/mL
# [16] = antibody concentration 15.2894 ng/mL
# [17] = antibody concentration 81.7561 ng/mL
# [18] = antibody concentration 437.17 ng/mL
# [19] = antibody concentration 2337.65 ng/mL
# [20] = antibody concentration 12500 ng/mL
binder,measurement,setting,value
B1,fluorescence intensity,[1]; [13],30 MFI
same,fluorescence intensity,[1]; [14],30.5 MFI
same,fluorescence intensity,[1]; [15],28 MFI
same,fluorescence intensity,[1]; [16],30.2 MFI
same,fluorescence intensity,[1]; [17],28.2 MFI
same,fluorescence intensity,[1]; [18],32.5 MFI
same,fluorescence intensity,[1]; [19],56 MFI
same,fluorescence intensity,[1]; [20],321 MFI
same,fluorescence intensity,[2]; [13],27 MFI
same,fluorescence intensity,[2]; [14],23.5 MFI
same,fluorescence intensity,[2]; [15],25.5 MFI
same,fluorescence intensity,[2]; [16],26.5 MFI
same,fluorescence intensity,[2]; [17],27 MFI
same,fluorescence intensity,[2]; [18],27 MFI
same,fluorescence intensity,[2]; [19],42 MFI
same,fluorescence intensity,[2]; [20],195 MFI
same,fluorescence intensity,[3]; [13],25.2 MFI
same,fluorescence intensity,[3]; [14],24.5 MFI
same,fluorescence intensity,[3]; [15],25 MFI
same,fluorescence intensity,[3]; [16],26.5 MFI
same,fluorescence intensity,[3]; [17],24.5 MFI
same,fluorescence intensity,[3]; [18],27 MFI
same,fluorescence intensity,[3]; [19],33.5 MFI
same,fluorescence intensity,[3]; [20],45 MFI
same,fluorescence intensity,[4]; [13],20 MFI
same,fluorescence intensity,[4]; [14],20.5 MFI
same,fluorescence intensity,[4]; [15],20.5 MFI
same,fluorescence intensity,[4]; [16],19.5 MFI
same,fluorescence intensity,[4]; [17],21 MFI
same,fluorescence intensity,[4]; [18],22 MFI
same,fluorescence intensity,[4]; [19],22.5 MFI
same,fluorescence intensity,[4]; [20],30 MFI
same,fluorescence intensity,[5]; [13],21.5 MFI
same,fluorescence intensity,[5]; [14],22 MFI
same,fluorescence intensity,[5]; [15],22 MFI
same,fluorescence intensity,[5]; [16],23.2 MFI
same,fluorescence intensity,[5]; [17],22.5 MFI
same,fluorescence intensity,[5]; [18],25 MFI
same,fluorescence intensity,[5]; [19],39 MFI
same,fluorescence intensity,[5]; [20],208 MFI
same,fluorescence intensity,[6]; [13],24.5 MFI
same,fluorescence intensity,[6]; [14],22.8 MFI
same,fluorescence intensity,[6]; [15],23.5 MFI
same,fluorescence intensity,[6]; [16],24 MFI
same,fluorescence intensity,[6]; [17],23.5 MFI
same,fluorescence intensity,[6]; [18],25 MFI
same,fluorescence intensity,[6]; [19],26.5 MFI
same,fluorescence intensity,[6]; [20],53 MFI
same,fluorescence intensity,[7]; [13],20 MFI
same,fluorescence intensity,[7]; [14],19.5 MFI
same,fluorescence intensity,[7]; [15],19.5 MFI
same,fluorescence intensity,[7]; [16],20 MFI
same,fluorescence intensity,[7]; [17],22 MFI
same,fluorescence intensity,[7]; [18],20.8 MFI
same,fluorescence intensity,[7]; [19],22.5 MFI
same,fluorescence intensity,[7]; [20],28.5 MFI
same,fluorescence intensity,[8]; [13],22 MFI
same,fluorescence intensity,[8]; [14],23.5 MFI
same,fluorescence intensity,[8]; [15],22.5 MFI
same,fluorescence intensity,[8]; [16],20 MFI
same,fluorescence intensity,[8]; [17],21.5 MFI
same,fluorescence intensity,[8]; [18],22 MFI
same,fluorescence intensity,[8]; [19],28.5 MFI
same,fluorescence intensity,[8]; [20],93 MFI
same,fluorescence intensity,[9]; [13],29.2 MFI
same,fluorescence intensity,[9]; [14],30.8 MFI
same,fluorescence intensity,[9]; [15],29.8 MFI
same,fluorescence intensity,[9]; [16],32 MFI
same,fluorescence intensity,[9]; [17],33 MFI
same,fluorescence intensity,[9]; [18],30.2 MFI
same,fluorescence intensity,[9]; [19],32.2 MFI
same,fluorescence intensity,[9]; [20],52.8 MFI
same,fluorescence intensity,[10]; [13],25 MFI
same,fluorescence intensity,[10]; [14],26 MFI
same,fluorescence intensity,[10]; [15],25.8 MFI
same,fluorescence intensity,[10]; [16],25.2 MFI
same,fluorescence intensity,[10]; [17],24 MFI
same,fluorescence intensity,[10]; [18],31.8 MFI
same,fluorescence intensity,[10]; [19],44.5 MFI
same,fluorescence intensity,[10]; [20],65.2 MFI
same,fluorescence intensity,[11]; [13],32 MFI
same,fluorescence intensity,[11]; [14],31 MFI
same,fluorescence intensity,[11]; [15],31.5 MFI
same,fluorescence intensity,[11]; [16],31 MFI
same,fluorescence intensity,[11]; [17],28.2 MFI
same,fluorescence intensity,[11]; [18],31.5 MFI
same,fluorescence intensity,[11]; [19],34 MFI
same,fluorescence intensity,[11]; [20],42 MFI
same,fluorescence intensity,[12]; [13],19.5 MFI
same,fluorescence intensity,[12]; [14],17.2 MFI

# Laid out differently: results already given
binder	measurement	setting	value
B1	fluorescence intensity	[11]; [15]	31.5 MFI
same	fluorescence intensity	[11]; [16]	31 MFI
same	fluorescence intensity	[11]; [17]	28.2 MFI
same	fluorescence intensity	[11]; [18]	31.5 MFI
